Data as given in PubChem BioAssay AID1508588 (Peter MacCallum Cancer Centre, 2020).

- Test: 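Which gene losses make BRAF-mutant melanoma cells more responsive to vemurafenib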 (primary screen)
- Cell system: human WM266.4 melanoma cells (BRAF V600 mutant)
- Reagent: siRNA pool against human genes, 40 nM
- Duration: 96 h from transfection to read-out
- Treatment: vemurafenib 300 nM (about IC25), added 48 h after transfection, for 48 h; comparison arm got DMSO vehicle only
- Read-out: 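Cell gain (DAPI nuclei at end minus before drug, mean of two replicates) and medium lactate by absorbance per cell, both as ratio to non-targeting siRNA, also grouped into fold-change classes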
- Direction: cell gain with vemurafenib: higher = more cell gain than with non-targeting siRNA; lactate per cell with vemurafenib: higher = more lactate made per cell
- Active means: 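a knock-down counts as enhancing when its fold-change classes with vehicle and with vemurafenib, taken together, show a stronger drug effect on cell gain or lactate per cell; exact class pairs not stated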
- Calls: active = enhances vemurafenib effect; inactive = no enhancement seen
The deposit covers about 18,000 reagents; this is a part drawn at random. 790 of them (4.4%) count as active. 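Calls rest on a combination of fold-change classes in drug and vehicle arms, not all shown here.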

TEX9 (testis expressed 9)
- cell gain with vemurafenib: 0.66
- lactate per cell with vemurafenib: 0.32
- Call: inactive

VSIG10 (V-set and immunoglobulin domain containing 10)
- cell gain with vemurafenib: 1.13
- lactate per cell with vemurafenib: 0.38
- Call: inactive

CCL19 (C-C motif chemokine ligand 19)
- cell gain with vemurafenib: 0.15
- lactate per cell with vemurafenib: 2.63
- Call: inactive

ATPAF2 (ATP synthase mitochondrial F1 complex assembly factor 2)
- cell gain with vemurafenib: 0.77
- lactate per cell with vemurafenib: 1.33
- Call: inactive

CTNNA3 (catenin alpha 3)
- cell gain with vemurafenib: 0.96
- lactate per cell with vemurafenib: 0.99
- Call: inactive

WFIKKN2
- cell gain with vemurafenib: 0.61
- lactate per cell with vemurafenib: 0.86
- Call: inactive

AMBP (alpha-1-microglobulin/bikunin precursor)
- cell gain with vemurafenib: 0.21
- lactate per cell with vemurafenib: 1.43
- Call: inactive

VMA21 (vacuolar ATPase assembly factor VMA21)
- cell gain with vemurafenib: 0.35
- lactate per cell with vemurafenib: 1.98
- Call: inactive

MAPT (microtubule associated protein tau)
- cell gain with vemurafenib: 0.41
- lactate per cell with vemurafenib: 0.5
- Call: inactive

CFAP263 (cilia and flagella associated protein 263)
- cell gain with vemurafenib: 0.35
- lactate per cell with vemurafenib: 0.76
- Call: inactive

DNASE2 (deoxyribonuclease 2, lysosomal)
- cell gain with vemurafenib: 1.1
- lactate per cell with vemurafenib: 0.82
- Call: inactive

TENM2 (teneurin transmembrane protein 2)
- cell gain with vemurafenib: 0.89
- lactate per cell with vemurafenib: 0.43
- Call: inactive

CCNB3 (cyclin B3)
- cell gain with vemurafenib: 0.69
- lactate per cell with vemurafenib: 0.64
- Call: inactive

RIT1 (Ras like without CAAX 1)
- cell gain with vemurafenib: 0.63
- lactate per cell with vemurafenib: 1.11
- Call: inactive

EVPL (envoplakin)
- cell gain with vemurafenib: 0.62
- lactate per cell with vemurafenib: 0.28
- Call: inactive

PUF60 (poly(U) binding splicing factor 60)
- cell gain with vemurafenib: 0.2
- lactate per cell with vemurafenib: 1.96
- Call: inactive

TMEM232 (transmembrane protein 232)
- cell gain with vemurafenib: 1.24
- lactate per cell with vemurafenib: 0.74
- Call: inactive

IL20RA (interleukin 20 receptor subunit alpha)
- cell gain with vemurafenib: 0.84
- lactate per cell with vemurafenib: 0.92
- Call: inactive

MYLK (myosin light chain kinase)
- cell gain with vemurafenib: 0.66
- lactate per cell with vemurafenib: 1.08
- Call: inactive

Next part; the last 5 above are carried over.
EVPL (envoplakin)
- cell gain with vemurafenib: 0.62
- lactate per cell with vemurafenib: 0.28
- Call: inactive

PUF60 (poly(U) binding splicing factor 60)
- cell gain with vemurafenib: 0.2
- lactate per cell with vemurafenib: 1.96
- Call: inactive

TMEM232 (transmembrane protein 232)
- cell gain with vemurafenib: 1.24
- lactate per cell with vemurafenib: 0.74
- Call: inactive

IL20RA (interleukin 20 receptor subunit alpha)
- cell gain with vemurafenib: 0.84
- lactate per cell with vemurafenib: 0.92
- Call: inactive

MYLK (myosin light chain kinase)
- cell gain with vemurafenib: 0.66
- lactate per cell with vemurafenib: 1.08
- Call: inactive

PLEKHO2 (pleckstrin homology domain containing O2)
- cell gain with vemurafenib: 0.51
- lactate per cell with vemurafenib: 1.03
- Call: inactive

CYP24A1 (cytochrome P450 family 24 subfamily A member 1)
- cell gain with vemurafenib: 0.5
- lactate per cell with vemurafenib: 0.39
- Call: inactive

VWC2 (von Willebrand factor C domain containing 2)
- cell gain with vemurafenib: 0.25
- lactate per cell with vemurafenib: 0.34
- Call: inactive

CT47A2 (cancer/testis antigen family 47 member A2)
- cell gain with vemurafenib: 0.92
- lactate per cell with vemurafenib: 0.41
- Call: active

NOS3 (nitric oxide synthase 3)
- cell gain with vemurafenib: 0.68
- lactate per cell with vemurafenib: 0.45
- Call: inactive

NMRK2 (nicotinamide riboside kinase 2)
- cell gain with vemurafenib: 0.31
- lactate per cell with vemurafenib: 1.81
- Call: inactive

PAN2 (poly(A) specific ribonuclease subunit PAN2)
- cell gain with vemurafenib: 0.94
- lactate per cell with vemurafenib: 0.89
- Call: inactive

RAMP3 (receptor activity modifying protein 3)
- cell gain with vemurafenib: 0.73
- lactate per cell with vemurafenib: 0.57
- Call: inactive

PRPF40B (pre-mRNA processing factor 40B)
- cell gain with vemurafenib: 0.52
- lactate per cell with vemurafenib: 0.48
- Call: active

ARHGEF39 (Rho guanine nucleotide exchange factor 39)
- cell gain with vemurafenib: 0.05
- lactate per cell with vemurafenib: 1.66
- Call: inactive

CD2 (CD2 molecule)
- cell gain with vemurafenib: 0.85
- lactate per cell with vemurafenib: 1.41
- Call: inactive

NFE2 (nuclear factor, erythroid 2)
- cell gain with vemurafenib: 0.74
- lactate per cell with vemurafenib: 1.09
- Call: inactive

CDY2A (chromodomain Y-linked 2A)
- cell gain with vemurafenib: 0.33
- lactate per cell with vemurafenib: 1.54
- Call: inactive

PAIP2 (poly(A) binding protein interacting protein 2)
- cell gain with vemurafenib: 0.75
- lactate per cell with vemurafenib: 1.48
- Call: inactive

NPY1R (neuropeptide Y receptor Y1)
- cell gain with vemurafenib: 0.58
- lactate per cell with vemurafenib: 0.55
- Call: active

PLCXD3
- cell gain with vemurafenib: 0.39
- lactate per cell with vemurafenib: 1.02
- Call: inactive

SCUBE2 (signal peptide, CUB domain and EGF like domain containing 2)
- cell gain with vemurafenib: 0.78
- lactate per cell with vemurafenib: 0.41
- Call: inactive

UNC5C (unc-5 netrin receptor C)
- cell gain with vemurafenib: 0.53
- lactate per cell with vemurafenib: 0.93
- Call: inactive

PAK1IP1 (PAK1 interacting protein 1)
- cell gain with vemurafenib: 0.53
- lactate per cell with vemurafenib: 1.79
- Call: inactive

MORC1 (MORC family CW-type zinc finger 1)
- cell gain with vemurafenib: 0
- lactate per cell with vemurafenib: 3.08
- Call: inactive

OAZ1 (ornithine decarboxylase antizyme 1)
- cell gain with vemurafenib: 0.62
- lactate per cell with vemurafenib: 0.85
- Call: inactive

OR5W2 (olfactory receptor family 5 subfamily W member 2)
- cell gain with vemurafenib: 0.47
- lactate per cell with vemurafenib: 1.42
- Call: inactive

PARP3 (poly(ADP-ribose) polymerase family member 3)
- cell gain with vemurafenib: 0.5
- lactate per cell with vemurafenib: 0.48
- Call: inactive

OR4C12 (olfactory receptor family 4 subfamily C member 12)
- cell gain with vemurafenib: 0.37
- lactate per cell with vemurafenib: 1.72
- Call: inactive

CD247 (CD247 molecule)
- cell gain with vemurafenib: 0.25
- lactate per cell with vemurafenib: 1.33
- Call: inactive

NBPF15 (NBPF member 15)
- cell gain with vemurafenib: 0.33
- lactate per cell with vemurafenib: 1.54
- Call: inactive

NDUFA9 (NADH:ubiquinone oxidoreductase subunit A9)
- cell gain with vemurafenib: 1.02
- lactate per cell with vemurafenib: 1.5
- Call: inactive

PAM (peptidylglycine alpha-amidating monooxygenase)
- cell gain with vemurafenib: 0.5
- lactate per cell with vemurafenib: 2.01
- Call: inactive

RAB39A (RAB39A, member RAS oncogene family)
- cell gain with vemurafenib: 0.43
- lactate per cell with vemurafenib: 0.82
- Call: inactive

FAHD1 (FAH domain containing oxaloacetate decarboxylase 1)
- cell gain with vemurafenib: 0.66
- lactate per cell with vemurafenib: 1.15
- Call: inactive

CTSD (cathepsin D)
- cell gain with vemurafenib: 0.81
- lactate per cell with vemurafenib: 0.95
- Call: inactive

GYPE (glycophorin E (MNS blood group))
- cell gain with vemurafenib: 0.44
- lactate per cell with vemurafenib: 1.25
- Call: inactive

MCM5 (minichromosome maintenance complex component 5)
- cell gain with vemurafenib: 0.66
- lactate per cell with vemurafenib: 0.54
- Call: inactive
